Data as given in patent publication US6083952A, “Compounds” (Astra Pharmaceuticals Limited, priority 1997, dated 2000).
Structures can show the parent of a compound that is named as a salt. Some results were stated once for a whole list of compounds, not compound by compound.

How the values were obtained:
[1] = target: human form of induced nitric oxide synthase (Homo sapiens, UniProt P35228); experiment: Screen 2: inhibition of human induced nitric oxide synthase, l-[3H]-arginine to l-citrulline, lysate of induced DLD1 cells; type: biochemical; settings: lysate of DLD1 cells induced with IL-1β and IFN-γ; preincubated 1 hour at 37° C., then 1 hour at 37° C.; read-out: IC50 (concentration of drug substance which gives 50% enzyme inhibition)
[2] = target: inducible isoform of the enzyme nitric oxide synthase (iNOS) from murine macrophage cell line J774A-1 (Mus musculus, UniProt P29477); settings: read-out: IC50 (concentration of drug substance which gives 50% enzyme inhibition); lysate of J774A-1 cells induced with LPS and IFNg; 1 hour at room temperature

| SMILES | IC50 [1] [µM] | IC50 [2] [µM] |
| --- | --- | --- |
| NC1=N[C@@]2(CCN3C(=O)c4ccccc4[C@H]3C2)Nc2cccc(F)c21 (relative stereo) [Example 1, (±)-(R*R*)-4'-Amino-5'-fluoro-1,3,4,10a-tetrahydrospiro[pyrido[2,1-a]isoindole-2,2'(1'H)quinazoline]-6-one] | < 25 | < 25 |
| NC1=N[C@@]2(CCN3C(=O)c4sccc4[C@@H]3C2)Nc2cccc(F)c21 (relative stereo) [Example 4, (±)-(R*S*)-4-Amino-5-fluoro-3b',4',6',7'-tetrahydrospiro[quinazoline-2,5'(2H,9'H)-thieno[3,2-a]indolizine]-9'-one] | < 25 | < 25 |
| NC1=N[C@@]2(CCN3C(=O)c4ccsc4[C@H]3C2)Nc2cccc(F)c21 (relative stereo) [Example 5, (±)-(R*R*)-4-Amino-5-fluoro-6',7',9',9a'-tetrahydrospiro[quinazoline-2,8'(2H,4'H)-thieno[2,3-a]indolizine]-4'-one] | < 25 | < 25 |
| NC1=N[C@@]2(CCN3C(=O)c4ccsc4[C@@H]3C2)Nc2cccc(F)c21 (relative stereo) [Example 6, (±)-(R*S*)-4-Amino-5-fluoro-6',7',9',9a'-tetrahydrospiro[quinazoline-2,8'(2H,4'H)-thieno[2,3-a]indolizine]-4'-one] | < 25 | < 25 |
| NC1=N[C@@]2(CCN3C(=O)c4c(Cl)cccc4[C@@H]3C2)Nc2cccc(F)c21 (relative stereo) [Example 8, (±)-(R*S*)-4'-Amino-7-chloro-5'-fluoro-1,3,4,10b-tetrahydrospiro[pyrido[2,1-a]isoindole-2,2'(1'H)-quinazoline]-6-one hydrochloride] | < 25 | < 25 |
| NC1=N[C@@]2(CCN3C(=O)c4cc(Cl)ccc4[C@H]3C2)Nc2cccc(F)c21 (relative stereo) [Example 9, (±)-(R*R*)-4'-Amino-8-chloro-5'-fluoro-1,3,4,10b-tetrahydrospiro[pyrido[2,1-a]isoindole-2,2'(1'H)-quinazoline]-6-one] | < 25 | < 25 |
| NC1=N[C@@]2(CCN3C(=O)c4cc(Cl)ccc4[C@@H]3C2)Nc2cccc(F)c21 (relative stereo) [Example 10, (±)-(R*S*)-4'-Amino-8-chloro-5'-fluoro-1,3,4,10b-tetrahydrospiro[pyrido[2,1-a]isoindole-2,2'(1'H)-quinazoline]-6-one] | < 25 | < 25 |
| NC1=N[C@@]2(CCN3C(=O)c4cccc(Cl)c4[C@H]3C2)Nc2cccc(F)c21 (relative stereo) [Example 13, (±)-(R*R*)-4'-Amino-10-chloro-5'-fluoro-1,3,4,10b-tetrahydrospiro[pyrido[2,1-a]isoindole-2,2'(1'H)-quinazoline]-6-one] | < 25 | < 25 |
| NC1=N[C@@]2(CCN3C(=O)c4c(ccc(Cl)c4Cl)[C@H]3C2)Nc2cccc(F)c21 (relative stereo) [Example 15, (±)-(R*R*)-4'-Amino-7,8-dichloro-5'-fluoro-1,3,4,10b-tetrahydrospiro[pyrido[2,1-a]isoindole-2,2'(1'H)-quinazoline]-6-one] | < 25 | < 25 |
| NC1=N[C@@]2(CCN3C(=O)c4c(ccc(Cl)c4Cl)[C@@H]3C2)Nc2cccc(F)c21 (relative stereo) [Example 16, (±)-(R*S*)-4'-Amino-7,8-dichloro-5'-fluoro-1,3,4,10b-tetrahydrospiro[pyrido[2,1-a]isoindole-2,2'(1'H)-quinazoline]-6-one] | < 25 | < 25 |
| Cc1cccc2c1C(=O)N1CC[C@]3(C[C@H]21)N=C(N)c1c(F)cccc1N3 (relative stereo) [Example 17, (±)-(R*R*)-4'-Amino-7-methyl-5'-fluoro-1,3,4,10b-tetrahydrospiro[pyrido[2,1-a]isoindole-2,2'(1'H)-quinazoline]-6-one] | < 25 | < 25 |
| Cc1cccc2c1C(=O)N1CC[C@]3(C[C@@H]21)N=C(N)c1c(F)cccc1N3 (relative stereo) [Example 18, (±)-(R*S *)-4'-Amino-7-methyl-5'-fluoro-1,3,4,10b-tetrahydrospiro[pyrido[2,1-a]isoindole-2,2'(1'H)-quinazoline]-6-one] | < 25 | < 25 |
| Cc1ccc2c(c1)C(=O)N1CC[C@]3(C[C@H]21)N=C(N)c1c(F)cccc1N3 (relative stereo) [Example 19, (±)-(R*R*)-4'-Amino-8-methyl-5'-fluoro-1,3,4,10b-tetrahydrospiro[pyrido[2,1-a]isoindole-2,2'(1'H)-quinazoline]-6-one] | < 25 | < 25 |
| N#Cc1ccc2c(c1)C(=O)N1CC[C@]3(C[C@@H]21)N=C(N)c1c(F)cccc1N3 (relative stereo) [Example 24, (±)-(R*S*)-4'-Amino-8-cyano-5'-fluoro-1,3,4,10b-tetrahydrospiro[pyrido[2,1-a]isoindole-2,2'(1'H)-quinazoline]-6-one] | < 25 | < 25 |
| N#Cc1ccc2c(c1)C(=O)N1CC[C@]3(C[C@H]21)N=C(N)c1c(F)ccc(F)c1N3 (relative stereo) [Example 25, (±)-(R*R*)-4'-Amino-8-cyano-5',8'-difluoro-1,3,4,10b-tetrahydrospiro[pyrido[2,1-a]isoindole-2,2'(1'H)-quinazoline]-6-one] | < 25 | < 25 |
| N#Cc1ccc2c(c1)C(=O)N1CC[C@]3(C[C@@H]21)N=C(N)c1c(F)ccc(F)c1N3 (relative stereo) [Example 26, (±)-(R*S*)-4'-Amino-8-cyano-5',8'-difluoro-1,3,4,10b-tetrahydrospiro[pyrido[2,1-a]isoindole-2,2'(1'H)-quinazoline]-6-one] | < 25 | < 25 |
| NC1=N[C@@]2(CCN3C(=O)c4ccncc4[C@H]3C2)Nc2cccc(F)c21 (relative stereo) [Example 27, (±)-(R*R*)-4'-Amino-5'-fluoro-7,8,10,10a-tetrahydrospiro[pyrido[3,4-a]indolizine-9,2'(1'H)-quinazoline]-5-one] | < 25 | < 25 |

The next lines start with the values.

| IC50 [1] [µM] | IC50 [2] [µM] | SMILES |
| --- | --- | --- |
| < 25 | < 25 | NC1=N[C@@]2(CCN3C(=O)c4ccccc4[C@@H]3C2)Nc2cccc(F)c21 (relative stereo) [Example 2, (±)-(R*S*)-4'-Amino-5'-fluoro-1,3,4,10a-tetrahydrospiro[pyrido[2,1-a]isoindole-2,2'(1'H)quinazoline]-6-one] |
| < 25 | < 25 | NC1=N[C@@]2(CCN3C(=O)c4sccc4[C@H]3C2)Nc2cccc(F)c21 (relative stereo) [Example 3, (±)-(R*R*)-4-Amino-5-fluoro-3b',4',6',7'-tetrahydrospiro[quinazoline-2,5'(2H,9'H)-thieno[3,2-a]indolizine]-9'-one] |
| < 25 | < 25 | NC1=N[C@@]2(CCN3C(=O)c4c(Cl)cccc4[C@H]3C2)Nc2cccc(F)c21 (relative stereo) [Example 7, (±)-(R*R*)-4'-Amino-7-chloro-5'-fluoro-1,3,4,10b-tetrahydrospiro[pyrido[2,1-a]isoindole-2,2'(1'H)-quinazoline]-6-one hydrochloride] |
| < 25 | < 25 | NC1=N[C@@]2(CCN3C(=O)c4ccc(Cl)cc4[C@H]3C2)Nc2cccc(F)c21 (relative stereo) [Example 11, (±)-(R*R*)-4'-Amino-9-chloro-5'-fluoro-1,3,4,10b-tetrahydrospiro[pyrido[2,1-a]isoindole-2,2'(1'H)-quinazoline]-6-one] |
| < 25 | < 25 | NC1=N[C@@]2(CCN3C(=O)c4ccc(Cl)cc4[C@@H]3C2)Nc2cccc(F)c21 (relative stereo) [Example 12, (±)-(R*S*)-4'-Amino-9-chloro-5'-fluoro-1,3,4,10b-tetrahydrospiro[pyrido[2,1-a]isoindole-2,2'(1'H)-quinazoline]-6-one] |
| < 25 | < 25 | NC1=N[C@@]2(CCN3C(=O)c4cccc(Cl)c4[C@@H]3C2)Nc2cccc(F)c21 (relative stereo) [Example 14, (±)-(R*S*)-4'-Amino-10-chloro-5'-fluoro-1,3,4,10b-tetrahydrospiro[pyrido[2,1-a]isoindole-2,2'(1'H)-quinazoline]-6-one] |
| < 25 | < 25 | Cc1ccc2c(c1)C(=O)N1CC[C@]3(C[C@@H]21)N=C(N)c1c(F)cccc1N3 (relative stereo) [Example 20, (±)-(R*S*)-4'-Amino-8-methyl-5'-fluoro-1,3,4,10b-tetrahydrospiro[pyrido[2,1-a]isoindole-2,2'(1'H)-quinazoline]-6-one] |
| < 25 | < 25 | COc1ccc2c(c1)C(=O)N1CC[C@]3(C[C@H]21)N=C(N)c1c(F)cccc1N3 (relative stereo) [Example 21, (±)-(R*R*)-4'-Amino-8-methoxy-5'-fluoro-1,3,4,10b-tetrahydrospiro[pyrido[2,1-a]isoindole-2,2'(1'H)-quinazoline]-6-one] |
| < 25 | < 25 | COc1ccc2c(c1)C(=O)N1CC[C@]3(C[C@@H]21)N=C(N)c1c(F)cccc1N3 (relative stereo) [Example 22, (±)-(R*S*)-4'-Amino-8-methoxy-5'-fluoro-1,3,4,10b-tetrahydrospiro[pyrido[2,1-a]isoindole-2,2'(1'H)-quinazoline]-6-one] |
| < 25 | < 25 | N#Cc1ccc2c(c1)C(=O)N1CC[C@]3(C[C@H]21)N=C(N)c1c(F)cccc1N3 (relative stereo) [Example 23, (±)-(R*R*)-4'-Amino-8-cyano-5'-fluoro-1,3,4,10b-tetrahydrospiro[pyrido[2,1-a]isoindole-2,2'(1'H)-quinazoline]-6-one] |
